From paper PMC6889187
These are yes or no findings as the source states them, for the method shown. In cells and extracts the contact can be indirect. Some binding calls cover weakened binding; strength is not graded here.

Chains of the proteins cited; added tags and fusions are not shown. Residues count along the entry.
UniProt P10451, residues 17-314: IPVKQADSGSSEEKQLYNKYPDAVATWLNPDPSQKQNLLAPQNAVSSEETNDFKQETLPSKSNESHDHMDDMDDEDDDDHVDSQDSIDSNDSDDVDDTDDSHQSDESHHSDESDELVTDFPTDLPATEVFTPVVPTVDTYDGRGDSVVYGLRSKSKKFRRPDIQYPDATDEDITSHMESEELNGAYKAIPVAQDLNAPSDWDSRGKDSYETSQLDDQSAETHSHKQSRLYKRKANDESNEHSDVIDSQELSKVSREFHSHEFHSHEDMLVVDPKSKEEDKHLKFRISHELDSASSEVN
UniProt Q04912, residues 25-1400: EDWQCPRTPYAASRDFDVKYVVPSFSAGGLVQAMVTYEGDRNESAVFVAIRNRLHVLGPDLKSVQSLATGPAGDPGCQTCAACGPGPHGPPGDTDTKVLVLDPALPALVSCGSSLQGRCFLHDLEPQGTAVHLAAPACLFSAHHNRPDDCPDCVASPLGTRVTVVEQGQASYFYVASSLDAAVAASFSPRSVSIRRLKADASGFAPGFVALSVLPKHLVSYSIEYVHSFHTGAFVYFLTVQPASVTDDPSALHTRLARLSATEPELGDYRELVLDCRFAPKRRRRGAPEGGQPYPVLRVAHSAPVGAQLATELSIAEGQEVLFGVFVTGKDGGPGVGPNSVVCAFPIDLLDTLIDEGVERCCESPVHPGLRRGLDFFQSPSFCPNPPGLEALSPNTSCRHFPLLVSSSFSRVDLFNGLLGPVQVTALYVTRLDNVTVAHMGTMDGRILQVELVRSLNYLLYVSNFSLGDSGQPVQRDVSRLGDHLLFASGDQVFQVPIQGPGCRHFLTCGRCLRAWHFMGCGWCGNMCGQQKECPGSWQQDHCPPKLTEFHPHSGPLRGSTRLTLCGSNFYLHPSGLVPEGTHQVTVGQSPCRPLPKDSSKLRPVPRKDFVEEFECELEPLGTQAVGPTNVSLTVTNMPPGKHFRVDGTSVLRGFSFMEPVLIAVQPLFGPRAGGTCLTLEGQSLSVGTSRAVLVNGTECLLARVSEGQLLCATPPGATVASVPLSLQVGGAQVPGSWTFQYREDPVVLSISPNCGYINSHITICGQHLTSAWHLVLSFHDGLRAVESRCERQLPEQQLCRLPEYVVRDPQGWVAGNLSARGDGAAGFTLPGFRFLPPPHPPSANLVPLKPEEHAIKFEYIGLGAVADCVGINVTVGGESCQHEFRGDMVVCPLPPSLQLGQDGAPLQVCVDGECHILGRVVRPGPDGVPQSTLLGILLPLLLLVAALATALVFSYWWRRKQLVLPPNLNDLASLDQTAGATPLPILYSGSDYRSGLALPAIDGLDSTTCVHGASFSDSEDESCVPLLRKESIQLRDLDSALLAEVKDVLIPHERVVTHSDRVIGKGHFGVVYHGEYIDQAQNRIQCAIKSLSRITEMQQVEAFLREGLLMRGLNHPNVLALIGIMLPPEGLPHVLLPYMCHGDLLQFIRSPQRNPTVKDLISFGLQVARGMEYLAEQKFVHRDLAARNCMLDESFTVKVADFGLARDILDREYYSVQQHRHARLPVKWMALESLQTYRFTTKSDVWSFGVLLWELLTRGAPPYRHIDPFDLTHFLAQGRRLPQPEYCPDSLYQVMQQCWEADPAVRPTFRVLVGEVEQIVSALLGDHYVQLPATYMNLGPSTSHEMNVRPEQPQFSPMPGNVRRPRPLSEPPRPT

Molecular target: Osteopontin (human (endogenous in A549)) (UniProt P10451)
Experiment: co-IP; IP of OPN with an anti-OPN antibody from whole cell lysate of A549 cells; irrelevant IgG as control; western blotting of the precipitate

binding: binds
Substance: Recepteur d'Origine Nantais (from UniProt Q04912 25-1400) (receptor)
